# Library screening results

Sequences of proteins named here, by UniProt entry; tags and fusion partners are left off.
UniProt E9BF75, entry or part of it: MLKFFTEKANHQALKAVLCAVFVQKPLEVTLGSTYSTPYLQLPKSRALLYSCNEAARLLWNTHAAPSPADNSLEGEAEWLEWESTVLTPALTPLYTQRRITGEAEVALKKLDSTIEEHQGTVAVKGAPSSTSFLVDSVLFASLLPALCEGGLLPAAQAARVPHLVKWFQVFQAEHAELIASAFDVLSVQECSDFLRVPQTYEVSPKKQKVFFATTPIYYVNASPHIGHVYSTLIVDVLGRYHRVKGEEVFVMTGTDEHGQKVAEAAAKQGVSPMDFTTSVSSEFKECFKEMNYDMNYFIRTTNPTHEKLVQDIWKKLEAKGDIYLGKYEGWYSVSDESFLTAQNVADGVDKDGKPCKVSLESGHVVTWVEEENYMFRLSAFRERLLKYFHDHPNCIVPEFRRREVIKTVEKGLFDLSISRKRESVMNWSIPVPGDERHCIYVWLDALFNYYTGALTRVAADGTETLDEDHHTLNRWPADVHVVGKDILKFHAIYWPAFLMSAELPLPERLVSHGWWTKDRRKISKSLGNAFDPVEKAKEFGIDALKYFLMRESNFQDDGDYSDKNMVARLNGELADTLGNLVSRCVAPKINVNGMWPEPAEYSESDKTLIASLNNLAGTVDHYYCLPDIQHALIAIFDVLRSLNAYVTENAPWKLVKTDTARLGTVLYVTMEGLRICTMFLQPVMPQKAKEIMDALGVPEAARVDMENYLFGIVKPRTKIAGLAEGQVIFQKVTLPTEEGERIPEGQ

All values are in %.
The record does not define 0% and 100%; most values in the screen are far below 50% and negative numbers occur (in some assays of this library far below -100).
The compounds are a random part of those screened.

Mtb heat-shock: 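Assay on Mycobacterium tuberculosis, filed only as a heat shock assay from Cornell; the read-out is not stated. The concentration is filed as 10 mM, unlikely as a test dose, so the dose is not known. Direction is inferred from retests: higher values go with stronger inhibition. About 69,000 compounds were tested under these conditions; 1.4% (about 930) showed 50% or more at least once.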
LdMetRS: 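Methionyl-tRNA synthetase (putative), Leishmania donovani (UniProt E9BF75). Primary screen of methionyl-tRNA synthetase; the read-out is not stated. The test concentration is not given. Values are per cent inhibition. Of about 68,000 compounds tested this way, about 24 (0.035%) reached 50% or more in at least one test.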
Mtb growth Cornell: 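Whole-cell assay for inhibitors of Mycobacterium tuberculosis growth, labelled Cornell in the record; the read-out is not stated. The concentration is filed as 10 mM, unlikely as a test dose, so the dose is not known. Higher means stronger inhibition (inferred from two other growth screens of the library). Of about 53,000 compounds tested this way, about 900 (1.7%) reached 50% or more in at least one test.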

{"compound": "CCc1ccccc1OC1CN(C(=O)c2ccnc(OC)c2)C1", "Mtb heat-shock": 1.137, "LdMetRS": 11.68, "Mtb growth Cornell": 66.55}
{"compound": "CCOc1ccc(CN(C)C(=O)c2nc(N3CCCC3)ncc2Cl)cc1", "Mtb heat-shock": -7.164, "LdMetRS": 10.45}
{"compound": "O=C(NCC1(CO)CC1)NC(c1nccs1)C1CC1", "stereo": "centres unmarked", "Mtb heat-shock": -3.308, "LdMetRS": 17.68}
{"compound": "CCC[C@@H]1CN(C(=O)CCc2ccco2)C[C@H]1NS(C)(=O)=O", "Mtb heat-shock": -3.23, "LdMetRS": 3.819, "Mtb growth Cornell": -14.03}
{"compound": "CCC(CC)c1cc(CNC(=O)N2CCC[C@@H]2CO)on1", "Mtb heat-shock": 3.15, "LdMetRS": 2.847}
{"compound": "NC(=O)CN1CCC(NC2CCCCc3ccccc32)CC1", "stereo": "centres unmarked", "Mtb heat-shock": -4.474, "LdMetRS": 18.12, "Mtb growth Cornell": 0.01872}
{"compound": "Cc1ccc(CN2CCN(C(=O)c3ccc(CO)cc3)C(C)C2=O)cc1", "stereo": "centres unmarked", "Mtb heat-shock": 15.15, "LdMetRS": 9.645}
{"compound": "CCc1nc(N2CCCC(CCOC)(C(=O)O)C2)ncc1C", "stereo": "centres unmarked", "Mtb heat-shock": -7.536, "LdMetRS": 12.15, "Mtb growth Cornell": -4.768}
{"compound": "CC(CNC(=O)NCc1ccco1)CC1(C)OCCO1", "stereo": "centres unmarked", "Mtb heat-shock": 0.7912, "LdMetRS": -2.506, "Mtb growth Cornell": -30.24}
{"compound": "O=C(O)C1(Oc2ccccc2F)CCN(C/C=C/c2ccco2)CC1", "Mtb heat-shock": 11.63, "LdMetRS": 8.541}
{"compound": "CSc1ccccc1C(=O)Nc1ccc(OC2CCN(C)CC2)cc1", "Mtb heat-shock": -23.77, "LdMetRS": 0, "Mtb growth Cornell": -5.201}
{"compound": "CCN(CC)C1CCN(C(=O)NCc2cccc(-n3ccnc3)c2)C1", "stereo": "centres unmarked", "Mtb heat-shock": 5.293, "LdMetRS": 9.922, "Mtb growth Cornell": 34.25}
{"compound": "[H][C@]12OCCN(C(=O)C3CCOCC3)[C@@]1([H])CC[C@@H]2OCc1ccncc1", "Mtb heat-shock": -31.26, "Mtb growth Cornell": 6.437}
{"compound": "Brc1cnc(NCCCOC2CCOCC2)nc1", "Mtb heat-shock": 12.83, "LdMetRS": 10.51}
{"compound": "CN1CCCC1c1ccc(C(=O)N2CCc3ccccc3C2)s1", "stereo": "centres unmarked", "Mtb heat-shock": -6.007, "LdMetRS": 9.294, "Mtb growth Cornell": -21.42}
{"compound": "O=C(O)C(F)(F)F.O=C(O)C(F)(F)F.[H][C@@]12COC[C@]1(CNC(=O)c1cccn1C)CN(Cc1cccc(C)n1)C2", "Mtb heat-shock": -6.218, "Mtb growth Cornell": -3.946}
{"compound": "CCCC(=O)N(C)CC(=O)Nc1ccc(Br)cn1", "Mtb heat-shock": -11.26, "LdMetRS": 26.88, "Mtb growth Cornell": -18.38}
{"compound": "CCCNC(=O)NCc1cccnc1OC", "Mtb heat-shock": -2.542, "LdMetRS": 6.294}
{"compound": "CCOc1cccc2c1OCC(=O)N(c1ccc(N(C)C)cc1)C2", "Mtb heat-shock": 78.25, "LdMetRS": 19.24, "Mtb growth Cornell": -34.98}
{"compound": "COc1cc(NC(=O)NCC2CCCO2)cc(OC)c1", "stereo": "centres unmarked", "Mtb heat-shock": -18.31, "LdMetRS": 8.189, "Mtb growth Cornell": -4.851}
{"compound": "c1cncc(N2CCOC3(CCCN(c4nncs4)C3)C2)c1", "stereo": "centres unmarked", "Mtb heat-shock": 12.38, "LdMetRS": 12.77, "Mtb growth Cornell": -37.93}
{"compound": "Cc1nc2c(c(NCC(c3cccnc3)N3CCOCC3)n1)CCNC2", "stereo": "centres unmarked", "Mtb heat-shock": -7.665, "LdMetRS": 16.82, "Mtb growth Cornell": -54.28}
{"compound": "Cc1ccc(C(=O)NC2CCN(C(C)C)C2)c(=O)[nH]1", "stereo": "centres unmarked", "Mtb heat-shock": 10.99, "LdMetRS": 13.97, "Mtb growth Cornell": -10.25}
{"compound": "O=C(C1CCOCC1)N1CCC2(CCN(Cc3nccs3)CC2)CC1.O=C(O)C(F)(F)F", "Mtb heat-shock": -15.83, "Mtb growth Cornell": 16.42}
{"compound": "CCC1CN(C(=O)c2ccc(O)c(C)c2)CCN1C(C)C", "stereo": "centres unmarked", "Mtb heat-shock": -22.47, "LdMetRS": 2.151, "Mtb growth Cornell": 2.566}
{"compound": "CC(C)c1cc(NC(CCO)c2ccccc2)n2nccc2n1", "stereo": "centres unmarked", "Mtb heat-shock": -6.202, "LdMetRS": 9.756}
{"compound": "O=C(O)C(F)(F)F.[H][C@@]12CN(CC3CCOCC3)C[C@]1([H])C(=O)N(c1cnn(C)c1)C2", "Mtb heat-shock": -6.296, "Mtb growth Cornell": 6.986}
{"compound": "COc1ccc(C(O)CNC(=O)NCc2csc(C)n2)cc1", "stereo": "centres unmarked", "Mtb heat-shock": -11.68, "LdMetRS": 8.571, "Mtb growth Cornell": 0.4061}
{"compound": "CCC(=O)N1CCN(C(=O)NC2CCc3ccccc3C2)CC1", "stereo": "centres unmarked", "Mtb heat-shock": -2.533, "LdMetRS": 14.5, "Mtb growth Cornell": 11.82}
{"compound": "COCC1CC2(CCNCC2)CN1Cc1csc(C)n1.O=C(O)C(F)(F)F.O=C(O)C(F)(F)F", "stereo": "centres unmarked", "Mtb heat-shock": -6.642, "Mtb growth Cornell": 9.987}
{"compound": "O=c1c(NCCNCCO)c(N2CCN(c3ccccc3)CC2)c1=O", "Mtb heat-shock": -7.436, "LdMetRS": 16.91, "Mtb growth Cornell": 14.49}
{"compound": "Cn1cnc2cc(C(=O)NS(=O)(=O)CC3CCCC3)ccc21", "Mtb heat-shock": -3.208, "LdMetRS": -22.97, "Mtb growth Cornell": 15.89}
{"compound": "NC(=O)c1cccc(C(=O)N2CCCC(n3ccnc3)C2)c1", "stereo": "centres unmarked", "Mtb heat-shock": 6.866, "LdMetRS": 23.33, "Mtb growth Cornell": 24.04}

Once more, the final 2:

compound,Mtb heat-shock,LdMetRS,Mtb growth Cornell
Cn1cnc2cc(C(=O)NS(=O)(=O)CC3CCCC3)ccc21,-3.208,-22.97,15.89
NC(=O)c1cccc(C(=O)N2CCCC(n3ccnc3)C2)c1 (centres unmarked),6.866,23.33,24.04

Source: ChEMBL document CHEMBL3988442, “University of Dundee, Small-Polar-MMV Screening Library” (2021).